Reference: PubChem BioAssay AID1508597 (Cure First, 2020)
Test: 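Genes whose silencing sensitises or protects ovarian cancer cells against rucaparib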 (primary screen). System: human ovarian carcinoma lines grown from tumours: OCI-P5x (papillary serous) and OCI-C5x (clear cell). Knock-down reagent: siRNA pool against human genes, 1.25 pmol siRNA per well. Timing: 72 h or 96 h, depending on the cell culture. Challenge: rucaparib 20 µM (about IC30) or vehicle, present until read-out. Rucaparib or vehicle: Rucaparib. Cell line: OCI-C5x (clear cell). Read-out: 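Luminescent ATP-based viability assay read 72 or 96 h after transfection, depending on culture, given as normalised percent viability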. Reading the numbers: viability, normalised: higher = more viable cells remaining. Rule for the call: 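a well counts as a hit if its normalised viability is under 80 percent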. Meaning of the calls: active = viability under 80%; inactive = viability 80% or more.
This is a random part of the about 2,100 reagents, in one setting of the screen. 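Calls flag viability under 80% in either arm, not effects specific to rucaparib; the reference for percent is not stated.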 A number with no mark means an inactive call. A reagent listed more than once was tested more than once; the source does not tell the runs apart. Not given: the 100% reference.

| gene symbol | technical replicate | viability, normalised (%) |
| --- | --- | --- |
| DLG3 | 1 | 44.1 (active) |
| DLG3 | 2 | 44.6 (active) |
| DLG3 | 3 | 45.8 (active) |
| POLH | 1 | 48.2 (active) |
| POLH | 1 | 73.5 (active) |
| POLH | 2 | 73.7 (active) |
| POLH | 2 | 60 (active) |
| POLH | 3 | 75.3 (active) |
| POLH | 3 | 53.8 (active) |
| RRM1 | 1 | 34.3 (active) |
| RRM1 | 2 | 33 (active) |
| RRM1 | 3 | 35.3 (active) |
| PRKX | 1 | 58.3 (active) |
| PRKX | 2 | 58.3 (active) |
| PRKX | 3 | 45 (active) |
| TP53 | 1 | 98.2 |
| TP53 | 1 | 59.5 (active) |
| TP53 | 1 | 57.1 (active) |
| TP53 | 2 | 67.9 (active) |
| TP53 | 2 | 69.8 (active) |
| TP53 | 2 | 67.3 (active) |
| TP53 | 3 | 70.2 (active) |
| TP53 | 3 | 49.9 (active) |
| TP53 | 3 | 71.2 (active) |
| ATRIP | 1 | 35.6 (active) |
| ATRIP | 2 | 28.4 (active) |
| ATRIP | 3 | 60.6 (active) |
| PIK3C2B | 1 | 70.1 (active) |
| PIK3C2B | 2 | 68.5 (active) |
| PIK3C2B | 3 | 63.9 (active) |
| INSRR | 1 | 48.9 (active) |
| INSRR | 2 | 43.9 (active) |
| INSRR | 3 | 42.7 (active) |
| MAP3K14 | 1 | 62.1 (active) |
| MAP3K14 | 2 | 67 (active) |
| MAP3K14 | 3 | 72.1 (active) |
| CDK6 | 1 | 59.9 (active) |
| CDK6 | 2 | 59.6 (active) |
| CDK6 | 3 | 49.5 (active) |
| IPO8 | 1 | 65.9 (active) |
| IPO8 | 2 | 53.5 (active) |
| IPO8 | 3 | 49.3 (active) |
| EPHA10 | 1 | 60.4 (active) |
| EPHA10 | 2 | 64.1 (active) |
| EPHA10 | 3 | 53.7 (active) |
| SCYL1 | 1 | 26.6 (active) |
| SCYL1 | 1 | 53.8 (active) |
| SCYL1 | 2 | 30.7 (active) |
| SCYL1 | 2 | 61.8 (active) |
| SCYL1 | 3 | 51.8 (active) |
| SCYL1 | 3 | 45.3 (active) |
| MARVELD3 | 1 | 46.9 (active) |
| MARVELD3 | 2 | 55.1 (active) |
| MARVELD3 | 3 | 57.8 (active) |
| CBX8 | 1 | 65.9 (active) |
| CBX8 | 2 | 65.6 (active) |
| CBX8 | 3 | 49.8 (active) |

Ordered by “viability, normalised (%)” (highest first): some entries from above
| gene symbol | technical replicate | viability, normalised (%) |
| --- | --- | --- |
| TP53 | 3 | 71.2 (active) |
| PIK3C2B | 1 | 70.1 (active) |
| PIK3C2B | 2 | 68.5 (active) |
| ATRIP | 3 | 60.6 (active) |
| TP53 | 3 | 49.9 (active) |
| ATRIP | 1 | 35.6 (active) |
| ATRIP | 2 | 28.4 (active) |
